Data: PMC12040169 (PLOS Biology, 2025)
The other results are listed elsewhere or left out.

System: T1, CTL2-GFP (C. trachomatis L2/434/Bu, GFP-expressing)
T1 construct: L2/434/Bu, GFP-expressing
Set-up: species or system HeLa; Intracellular C. trachomatis growth in HeLa cells, bulk GFP fluorescence relative to DMSO
Details: bulk GFP, single well; 28.5 h, 10 µM; inhibitor

SMILES | % of control remaining
O=C(C1CCC1)N1CCC(c2onc3c2CCCCC3)CC1 [CBK284496] | 79.2283%
CC(C)C[C@H](NC(=O)NCCN1CCOCC1)C(=O)O [CBK286619] | 134.659%
Cc1ccc(NC(=S)NCCNc2ccccn2)cc1Cl [CBK297544] | 167.619%
Cc1nn(C2CCCO2)c(=O)nc1N (stereo not shown) [CBK021028] | 125.252%
O=C(NCc1ccsc1)NCC1CCN(c2ccncc2)CC1 [CBK306394] | 120.029%
Cc1ccccc1Nc1n[nH]c(=S)s1 [CBK015808] | 145.345%
CCCN(CCC)C(=O)Cn1cnc2ccc(Cl)cc2c1=O [CBK304651] | 142.182%
O=c1nc(NN=C2CCCCC2)cn[nH]1 [CBK018838] | 119.394%
O=C(NCCc1cccnc1)Nc1ccc(CN2CCCC2=O)cc1 [CBK306461] | 119.739%
Nc1ncc(-c2ccccc2CO)nc1N1CCN(CCO)CC1 [CBK063404] | 181.072%
Cc1c(NC(=S)NC(=O)C(C)C)cccc1-c1nc2ncccc2o1 [CBK269712] | 118.456%
Cc1nc(C)n(C2CN(S(=O)(=O)c3ccc4scnc4c3)C2)n1 [CBK305889] | 144.222%
Cc1cc(NC(=O)CN(C)CC(=O)Nc2ccc(Br)cc2C)no1 [CBK260700] | 116.849%
COc1ccc(CCCC(=O)Nc2ccc(N3CCNCC3)c3ccccc23)cc1OC [CBK028406T] | 126.722%
CN1CCc2c(sc3nc(SCC(=O)c4ccccc4)n(-c4ccccc4)c(=O)c23)C1 [CBK262586] | 119.839%
Cc1noc(C2(O)CCN(Cc3sccc3Cl)C2)n1 (stereo not shown) [CBK304863] | 100.393%
CN1CCCN(Cc2cccc3ccccc23)CC1 [CBK261531] | 100%
COC(=O)c1sccc1NC(=O)Cc1ccccc1[N+](=O)[O-] [CBK268146] | 99.9077%
CN(C)CCN1CCN(c2nc(Br)cn3ccnc23)CC1 [CBK037501] | 148.364%
COc1ccc(C(C)C)cc1-c1ccc(NS(C)(=O)=O)c2ccccc12 [CBK083747] | 117.234%

7 consecutive records from above:
SMILES | % of control remaining
CC(C)C[C@H](NC(=O)NCCN1CCOCC1)C(=O)O [CBK286619] | 134.659%
Cc1ccc(NC(=S)NCCNc2ccccn2)cc1Cl [CBK297544] | 167.619%
Cc1nn(C2CCCO2)c(=O)nc1N (stereo not shown) [CBK021028] | 125.252%
O=C(NCc1ccsc1)NCC1CCN(c2ccncc2)CC1 [CBK306394] | 120.029%
Cc1ccccc1Nc1n[nH]c(=S)s1 [CBK015808] | 145.345%
CCCN(CCC)C(=O)Cn1cnc2ccc(Cl)cc2c1=O [CBK304651] | 142.182%
O=c1nc(NN=C2CCCCC2)cn[nH]1 [CBK018838] | 119.394%

Next part

SMILES | % of control remaining
CC(=O)c1ccccc1NC(C#N)c1ccccc1 (stereo not shown) [CBK057758] | 119.236%
O=C(Cn1c(-c2ccc(F)cc2)cc2cccnc21)NC1CC1 [CBK284861] | 107.896%
CCc1nnc(NS(=O)(=O)c2ccc(NCc3ccccc3O)cc2)s1 [CBK085149] | 59.9406%
CCSc1nnc(Cc2cc(=O)[nH]c(=O)[nH]2)n1-c1ccc(F)cc1 [CBK287500] | 148.231%
CN(C)CCNC(=O)c1cncc(-c2ccc(C(=O)N3CCOCC3)cc2)c1 [CBK158619] | 139.381%
COc1cccc(C(=O)N2CCN(C(=O)Nc3ccccc3Br)CC2)c1 [CBK154783] | 96.4083%
Cc1cc(OCC(=O)Nc2ccccc2N2CCN(S(C)(=O)=O)CC2)ccc1Cl [CBK269410] | 86.0904%
O=C(Nc1ccc(C2(c3ccc(NC(=O)c4cccc5ccccc45)cc3)c3ccccc3-c3ccccc32)cc1)c1cccc2ccccc12 [CBK261163] | 89.0166%
CCOC(=O)c1c(NC(=O)CSc2nncn2C)sc(C)c1C [CBK267970] | 140.696%
CCCCn1nc(C(=O)N2CCCCC2c2ncc(-c3cccc(F)c3)[nH]2)ccc1=O (stereo not shown) [CBK291149] | 110.079%
OC(CN1CCC(O)(c2ccc(F)cc2)CC1)c1ccc(-c2ccccc2)cc1 (stereo not shown) [CBK286328] | 81.0044%
N#Cc1ccc(CN2CCCN(S(=O)(=O)c3ccc(C(F)(F)F)cc3Cl)CC2)cc1 [CBK062939] | 80.8772%
Cc1cc(Sc2nc[nH]n2)c2c(Cl)ccc(Cl)c2n1 [CBK025959] | 103.266%
CCOc1ccc(S(=O)(=O)N(C)c2ccc(OCC(=O)O)cc2)cc1 [CBK296119] | 102.886%
NC(=O)NC(CC(=O)N1CCc2sccc2C1)c1cccc(Br)c1 (stereo not shown) [CBK305813] | 162.219%
Fc1ccc2c(c1)[C@@H](Oc1cncc(NC3CCCNC3)n1)CCO2 (stereo partly shown) [CBK172256G] | 125.045%
CN1CC[C@H](c2ccccc2)[C@@H]2[C@H]1CCCCN2C(=O)c1ccc(=O)oc1 [CBK285527] | 145.767%
CCN1CCCC1CNC(=O)c1ccc(-c2ccco2)nc1N1CCN(C(=O)c2ccco2)CC1 (stereo not shown) [CBK076206] | 110.702%
O=C1NC2(CCc3ccccc31)CCN(Cc1cccnc1)C2 (stereo not shown) [CBK284620] | 148.573%
CC(=O)c1cc(C(=O)NCc2ccc(C)cc2)n(C)c1 [CBK296750] | 115.887%
